The target in one test is T1, TAp73-HA (UniProt O15350).
T1 sequence: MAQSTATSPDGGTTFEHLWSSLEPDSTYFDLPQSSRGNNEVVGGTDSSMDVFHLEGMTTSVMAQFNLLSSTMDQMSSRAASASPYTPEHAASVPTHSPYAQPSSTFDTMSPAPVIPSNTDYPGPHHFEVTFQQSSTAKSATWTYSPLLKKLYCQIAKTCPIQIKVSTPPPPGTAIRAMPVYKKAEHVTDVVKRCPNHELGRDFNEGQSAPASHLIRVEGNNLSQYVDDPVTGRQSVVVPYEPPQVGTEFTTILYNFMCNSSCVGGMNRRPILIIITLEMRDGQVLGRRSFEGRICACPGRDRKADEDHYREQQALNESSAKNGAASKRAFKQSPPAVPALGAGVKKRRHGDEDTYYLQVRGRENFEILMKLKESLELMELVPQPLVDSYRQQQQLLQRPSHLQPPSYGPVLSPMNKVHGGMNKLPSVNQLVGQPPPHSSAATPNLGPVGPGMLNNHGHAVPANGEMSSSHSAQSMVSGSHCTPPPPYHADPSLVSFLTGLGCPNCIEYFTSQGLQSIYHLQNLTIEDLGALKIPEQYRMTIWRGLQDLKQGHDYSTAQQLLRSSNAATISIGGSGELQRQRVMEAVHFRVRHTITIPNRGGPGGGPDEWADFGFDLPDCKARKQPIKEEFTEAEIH
Kind of test: co-IP; neuronal PC12 cells transfected with TAp73-HA and Itch-Myc, with or without MG132; lysates after 48 h; IP with anti-HA or anti-Myc, blotted with anti-myc and anti-HA respectively.

Sequences of proteins named here, by UniProt entry; tags and fusion partners are left off.
UniProt Q8C863: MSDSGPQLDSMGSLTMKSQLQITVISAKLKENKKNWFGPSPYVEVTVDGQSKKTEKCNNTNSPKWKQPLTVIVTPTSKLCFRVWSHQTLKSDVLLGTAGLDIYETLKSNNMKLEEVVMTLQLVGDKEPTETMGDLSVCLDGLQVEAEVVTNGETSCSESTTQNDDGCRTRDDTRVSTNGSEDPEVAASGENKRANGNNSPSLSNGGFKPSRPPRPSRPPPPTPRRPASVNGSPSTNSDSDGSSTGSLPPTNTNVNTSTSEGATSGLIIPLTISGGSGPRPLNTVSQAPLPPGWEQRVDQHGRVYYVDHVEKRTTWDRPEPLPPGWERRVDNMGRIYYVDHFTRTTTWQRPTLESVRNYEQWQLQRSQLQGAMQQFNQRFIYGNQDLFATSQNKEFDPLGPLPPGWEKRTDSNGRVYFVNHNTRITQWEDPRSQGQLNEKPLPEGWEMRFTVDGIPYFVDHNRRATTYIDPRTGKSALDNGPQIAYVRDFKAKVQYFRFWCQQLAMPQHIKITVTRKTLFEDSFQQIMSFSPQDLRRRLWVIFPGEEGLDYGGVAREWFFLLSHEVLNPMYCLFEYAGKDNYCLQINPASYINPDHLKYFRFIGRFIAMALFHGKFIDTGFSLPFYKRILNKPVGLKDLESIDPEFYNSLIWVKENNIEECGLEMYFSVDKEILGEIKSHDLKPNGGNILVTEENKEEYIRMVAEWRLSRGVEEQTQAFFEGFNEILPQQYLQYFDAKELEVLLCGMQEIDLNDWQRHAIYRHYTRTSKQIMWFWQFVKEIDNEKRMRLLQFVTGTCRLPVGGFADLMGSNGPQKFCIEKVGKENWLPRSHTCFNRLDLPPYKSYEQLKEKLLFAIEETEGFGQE

In another test the target is Itch-Myc (UniProt Q8C863). The description is as above.
The target of test [1] is Itch-myc (adenovirus, wild type) (UniProt Q8C863). Kind of test: co-IP; TgAD mouse neurons infected with adenovirus for Itch-myc or K393R mutant, with MG132; co-immunoprecipitation of Itch-myc and TAp73 (Supplementary Fig. S5).
Test [2] addresses Itch (endogenous, TgAD mouse cortical neurons) (mouse (endogenous in TgAD cortical neurons)) (UniProt Q8C863). Kind of test: co-IP; neurons from TgAD animals, with or without JNK inhibition; data not shown.

Results are given in words; binding and its absence hold for the method and conditions named. In cells and extracts the contact can be indirect. Some entries that bind do so weakly or less than the wild type. For some of these results: Sequences can lack the tags named with a protein.

“Itch-Myc (from UniProt Q8C863 1-864) (enzyme)”: the binding result with TAp73-HA is “binds”.

B1: TAp73-HA (protein, UniProt O15350 1-636)
chain: T1 sequence
Regarding B1, the binding result with Itch-Myc is reported as “binds”.

B2: TAp73 (endogenous, TgAD mouse cortical neurons) (protein, UniProt Q9JJP2 1-631)
chain: MAQTSSSSSSTFEHLWSSLEPDSTYFDLPQPSQGTSEASGSEESNMDVFHLQGMAQFNLLSSAMDQMGSRAAPASPYTPEHAASAPTHSPYAQPSSTFDTMSPAPVIPSNTDYPGPHHFEVTFQQSSTAKSATWTYSPLLKKLYCQIAKTCPIQIKVSTPPPPGTAIRAMPVYKKAEHVTDIVKRCPNHELGRDFNEGQSAPASHLIRVEGNNLAQYVDDPVTGRQSVVVPYEPPQVGTEFTTILYNFMCNSSCVGGMNRRPILVIITLETRDGQVLGRRSFEGRICACPGRDRKADEDHYREQQALNESTTKNGAASKRAFKQSPPAIPALGTNVKKRRHGDEDMFYMHVRGRENFEILMKVKESLELMELVPQPLVDSYRQQQQQQLLQRPSHLQPPSYGPVLSPMNKVHGGVNKLPSVNQLVGQPPPHSSAAGPNLGPMGSGMLNSHGHSMPANGEMNGGHSSQTMVSGSHCTPPPPYHADPSLVSFLTGLGCPNCIECFTSQGLQSIYHLQNLTIEDLGALKVPDQYRMTIWRGLQDLKQSHDCGQQLLRSSSNAATISIGGSGELQRQRVMEAVHFRVRHTITIPNRGGAGAVTGPDEWADFGFDLPDCKSRKQPIKEEFTETESH
On to B2, for which the binding entry in test [1] and in test [2] was “binds” throughout.

For the origin of these results see PMC7280246.
